Measurements: paper PMC4424349
These are yes or no findings as the source states them, for the method shown. Binding seen in cells or lysates may run through a third protein. Where a sequence is shown, tags or fusion partners need not be part of it.

Target: T1, PfMyoB-GFP (Plasmodium falciparum myosin B with C-terminal GFP) (Plasmodium falciparum 3D7), Q8I465
T1 chain: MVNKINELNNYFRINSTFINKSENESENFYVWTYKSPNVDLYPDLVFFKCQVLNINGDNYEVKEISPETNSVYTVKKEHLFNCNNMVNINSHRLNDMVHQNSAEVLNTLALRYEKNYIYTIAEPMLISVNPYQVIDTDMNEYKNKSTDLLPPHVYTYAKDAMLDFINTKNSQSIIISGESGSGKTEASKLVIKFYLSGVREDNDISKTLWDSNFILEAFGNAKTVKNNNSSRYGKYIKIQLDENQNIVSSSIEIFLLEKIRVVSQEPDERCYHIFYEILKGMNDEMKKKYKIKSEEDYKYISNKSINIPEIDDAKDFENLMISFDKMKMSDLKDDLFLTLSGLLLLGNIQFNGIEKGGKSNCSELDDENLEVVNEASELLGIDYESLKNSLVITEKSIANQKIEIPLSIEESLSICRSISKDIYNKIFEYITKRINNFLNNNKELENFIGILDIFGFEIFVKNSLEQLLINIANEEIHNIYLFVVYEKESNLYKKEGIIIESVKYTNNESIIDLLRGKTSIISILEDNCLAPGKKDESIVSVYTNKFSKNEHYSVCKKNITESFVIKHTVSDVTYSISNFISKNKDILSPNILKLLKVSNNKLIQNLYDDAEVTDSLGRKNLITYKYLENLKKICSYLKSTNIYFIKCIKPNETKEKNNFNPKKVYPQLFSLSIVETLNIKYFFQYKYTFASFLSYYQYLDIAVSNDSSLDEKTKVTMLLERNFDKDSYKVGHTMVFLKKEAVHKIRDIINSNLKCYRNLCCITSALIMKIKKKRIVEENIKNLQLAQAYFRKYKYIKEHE
Experiment: co-IP; GFP-Trap agarose beads on schizont lysates (0.5% Nonidet P-40, 150 mM NaCl, 10 mM Tris-HCl pH 7.5, diluted to 0.2% detergent), 2 h at 4 °C, washes with 150 mM and 300 mM NaCl; Western blot with anti-GFP, anti-GAP50, anti-GAP45, anti-MTIP; 3D7 lysate as control
Conditions: remark: other sources report otherwise

B1: myosin A tail domain-interacting protein (MTIP), Q8I4W8 1-204 (protein)
chain: MKQECNVCYFNLPDPESTLGPYDNELNYFTWGPGFEYEPEPQRKPLSIEESFENSEESEESVADIQQLEEKVDESDVRIYFNEKSSGGKISIDNASYNARKLGLAPSSIDEKKIKELYGDNLTYEQYLEYLSICVHDKDNVEELIKMFAHFDNNCTGYLTKSQMKNILTTWGDALTDQEAIDALNAFSSEDNIDYKLFCEDILQ
With B1 the binding was “no binding”.
